Assay results reported in PMC3282686.
Results are given in words; binding and its absence hold for the method and conditions named. Binding seen in cells or lysates may run through a third protein.

Chains of the proteins cited; added tags and fusions are not shown.
UniProt Q9UKV8: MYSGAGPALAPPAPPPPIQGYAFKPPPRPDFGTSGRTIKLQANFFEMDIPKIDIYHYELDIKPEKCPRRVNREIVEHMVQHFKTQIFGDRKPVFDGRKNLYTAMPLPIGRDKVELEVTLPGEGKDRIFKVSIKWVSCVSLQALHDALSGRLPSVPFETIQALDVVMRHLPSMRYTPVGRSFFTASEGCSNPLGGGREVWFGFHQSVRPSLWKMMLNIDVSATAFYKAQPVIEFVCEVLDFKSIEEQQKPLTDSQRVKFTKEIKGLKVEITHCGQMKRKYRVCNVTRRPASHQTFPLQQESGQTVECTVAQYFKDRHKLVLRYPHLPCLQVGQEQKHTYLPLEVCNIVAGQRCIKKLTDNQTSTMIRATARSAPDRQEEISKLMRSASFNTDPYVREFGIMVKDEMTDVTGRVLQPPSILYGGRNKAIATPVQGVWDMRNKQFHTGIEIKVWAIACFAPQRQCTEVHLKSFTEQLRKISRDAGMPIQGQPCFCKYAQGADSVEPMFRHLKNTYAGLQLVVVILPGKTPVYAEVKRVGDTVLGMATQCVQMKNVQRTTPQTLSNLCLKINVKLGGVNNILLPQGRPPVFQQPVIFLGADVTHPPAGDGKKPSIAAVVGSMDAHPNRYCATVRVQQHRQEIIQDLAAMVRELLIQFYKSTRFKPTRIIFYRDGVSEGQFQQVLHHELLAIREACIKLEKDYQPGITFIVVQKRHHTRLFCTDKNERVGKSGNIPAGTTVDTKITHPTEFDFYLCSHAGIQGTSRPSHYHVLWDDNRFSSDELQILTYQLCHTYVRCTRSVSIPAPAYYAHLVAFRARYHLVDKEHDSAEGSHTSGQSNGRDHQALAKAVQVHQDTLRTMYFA

Key:
Assay in all cases: co-IP; endogenous proteins of cancer cells transfected with siH3 or siScb; precipitated with antibodies specific for RNA Pol II, TFIIB, Ago1 or Ago2 (unspecific IgG as control) on protein A-Sepharose beads; bound proteins released by boiling in SDS-PAGE loading buffer and analysed by western blot
[1] = target: transcription factor II B (human (endogenous in PC-3, EJ and SGC-7901)) (UniProt Q00403)
[2] = target: Argonaute 1 (human (endogenous in PC-3, EJ and SGC-7901)) (UniProt Q9UL18)
[3] = target: Argonaute 2 (human (endogenous in PC-3, EJ and SGC-7901)) (UniProt Q9UKV8)

| binding [1] | binding [2] | binding [3] | Substance |
| --- | --- | --- | --- |
| no binding | – | – | Argonaute 1 (from UniProt Q9UL18 1-857) |
| no binding | – | – | Argonaute 2 (from UniProt Q9UKV8 1-859) |
| – | no binding | no binding | transcription factor II B (from UniProt Q00403 1-316) |
